This experiment deals with Homeobox A9 (HOXA9) (human (endogenous in the paper's human cell lines)) (UniProt P31269). In words: affinity purification with mass spectrometry; immunoprecipitation from cell lysate with a HOXA9 antibody or non-specific IgG control; 20 ug of precipitated protein mix separated by SDS-PAGE, in-gel tryptic digestion, Orbitrap Fusion LC-MS/MS.

Chains of the proteins cited; added tags and fusions are not shown.
UniProt P31269: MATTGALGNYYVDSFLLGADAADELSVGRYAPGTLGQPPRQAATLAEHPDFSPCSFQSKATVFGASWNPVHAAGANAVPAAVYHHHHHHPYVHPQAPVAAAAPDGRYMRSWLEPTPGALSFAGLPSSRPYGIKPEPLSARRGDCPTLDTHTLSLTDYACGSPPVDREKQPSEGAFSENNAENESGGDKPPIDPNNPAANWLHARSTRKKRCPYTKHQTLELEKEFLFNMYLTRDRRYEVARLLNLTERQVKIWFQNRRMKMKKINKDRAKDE

These are yes or no findings as the source states them, for the method shown. Binding seen in cells or lysates may run through a third protein. Here binding means that the protein was enriched with, or labelled near, the bait; the list need not be complete.

B1: CRIP2 (protein, UniProt P52943 1-208)
chain: MASKCPKCDKTVYFAEKVSSLGKDWHKFCLKCERCSKTLTPGGHAEHDGKPFCHKPCYATLFGPKGVNIGGAGSYIYEKPLAEGPQVTGPIEVPAARAEERKASGPPKGPSRASSVTTFTGEPNTCPRCSKKVYFAEKVTSLGKDWHRPCLRCERCGKTLTPGGHAEHDGQPYCHKPCYGILFGPKGVNTGAVGSYIYDRDPEGKVQP
B1: the binding result is on record as “binds”.

These data come from publication PMC5902613.
